“And” between values parts separate entries of the source, which are not always exact repeats. Equal values may be shown once. The source gives many values for each of these; only a part stands here.
Tested on: U2OS cells
Test: Cell growth assay (IncuCyte confluence over 72 h)
Type: cell-based
Parameters: key: % of well area covered by cells (confluence)
Details: listed as 8F20
How it was run: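 U2OS cells were grown in DMEM with 10% FBS for 24 h before treatment. Confluence was then tracked by IncuCyte phase imaging over 72 h and expressed as % of well area covered by cells. Each point is the average of three wells.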

SMILES: Cc1ccc(C(=O)N(CCCN)[C@@H](c2nc3cc(Cl)ccc3c(=O)n2Cc2ccccc2)C(C)C)cc1 [compound 3, (R)-N-(3-aminopropyl)-N-(1-(3-benzyl-7-chloro-4-oxo-3,4-dihydroquinazolin-2-yl)−2-methylpropyl)−4-methylbenzamide]
- U2OS cell growth (1 uM, time 52 h): 47.0716 and 49.5984 and 42.8553
- U2OS cell growth (1 uM, time 54 h): 44.609 and 41.7573 and 40.696
- U2OS cell growth (1 uM, time 56 h): 46.7786 and 49.5622 and 42.8728
- U2OS cell growth (1 uM, time 58 h): 46.5611 and 53.9752 and 42.1432
- U2OS cell growth (1 uM, time 60 h): 60.4507 and 54.7817 and 48.5604
- U2OS cell growth (1 uM, time 62 h): 59.1943 and 54.8864 and 50.1985
- U2OS cell growth (1 uM, time 64 h): 53.4434 and 54.5783 and 47.7028
- U2OS cell growth (1 uM, time 66 h): 52.0095 and 51.5108 and 45.6596
- U2OS cell growth (1 uM, time 68 h): 52.8953 and 56.7452 and 45.2781
- U2OS cell growth (1 uM, time 70 h): 53.803 and 53.7332 and 43.5461
- U2OS cell growth (1 uM, time 72 h): 51.4215 and 55.7661 and 47.397
- U2OS cell growth (3 uM, time 0 h): 34.2024 and 36.376 and 38.6668
- U2OS cell growth (3 uM, time 2 h): 38.3977 and 38.2102 and 40.6895
- U2OS cell growth (3 uM, time 4 h): 38.6509 and 39.2439 and 41.6964
- U2OS cell growth (3 uM, time 6 h): 37.5734 and 35.0944 and 35.8046
- U2OS cell growth (3 uM, time 8 h): 35.0629 and 34.0655 and 35.0431
- U2OS cell growth (3 uM, time 10 h): 36.5785 and 33.9226 and 38.3971
- U2OS cell growth (3 uM, time 12 h): 34.8854 and 31.3793 and 37.0691
- U2OS cell growth (3 uM, time 14 h): 34.2707 and 28.7445 and 31.9652
- U2OS cell growth (3 uM, time 16 h): 34.7729 and 29.5647 and 34.6836
- U2OS cell growth (3 uM, time 18 h): 33.132 and 27.5982 and 31.2012
- U2OS cell growth (3 uM, time 20 h): 30.6768 and 25.7267 and 30.4785
- U2OS cell growth (3 uM, time 22 h): 29.8144 and 24.3692 and 27.4449
- U2OS cell growth (3 uM, time 24 h): 27.9858 and 25.6417 and 27.3952
- U2OS cell growth (3 uM, time 26 h): 29.2786 and 25.7892 and 28.9016
- U2OS cell growth (3 uM, time 28 h): 27.6137 and 24.9874 and 26.9167
- U2OS cell growth (3 uM, time 30 h): 26.6111 and 25.3493 and 27.4407
- U2OS cell growth (3 uM, time 32 h): 26.9503 and 25.9594 and 27.7129
- U2OS cell growth (3 uM, time 48 h): 25.4708 and 25.8851 and 28.3176
- U2OS cell growth (3 uM, time 50 h): 25.1293 and 26.4095 and 27.0127
- U2OS cell growth (3 uM, time 52 h): 24.9031 and 27.2246 and 29.1456
- U2OS cell growth (3 uM, time 54 h): 24.6365 and 24.6482 and 28.431
- U2OS cell growth (3 uM, time 56 h): 25.9831 and 26.8626 and 28.8581
- U2OS cell growth (3 uM, time 58 h): 25.7496 and 28.2533 and 28.4753
- U2OS cell growth (3 uM, time 60 h): 26.8396 and 28.9234 and 32.5852
- U2OS cell growth (3 uM, time 62 h): 25.8993 and 27.8649 and 31.83
- U2OS cell growth (3 uM, time 64 h): 25.586 and 26.5192 and 30.5813
- U2OS cell growth (3 uM, time 66 h): 25.5573 and 26.177 and 29.1451
- U2OS cell growth (3 uM, time 68 h): 26.9679 and 26.9212 and 30.2676
- U2OS cell growth (3 uM, time 70 h): 24.8358 and 24.3369 and 27.5293
- U2OS cell growth (3 uM, time 72 h): 25.4806 and 25.8489 and 30.1657
- U2OS cell growth (5 uM, time 0 h): 33.2815 and 25.4553 and 36.825
- U2OS cell growth (5 uM, time 2 h): 37.3942 and 31.6173 and 43.0793
- U2OS cell growth (5 uM, time 4 h): 31.2077 and 34.5693 and 36.1758
- U2OS cell growth (5 uM, time 6 h): 32.1786 and 32.8409 and 39.7841
- U2OS cell growth (5 uM, time 8 h): 29.5284 and 30.9286 and 36.8404
- U2OS cell growth (5 uM, time 10 h): 30.6585 and 30.0434 and 38.1931
- U2OS cell growth (5 uM, time 12 h): 30.2785 and 28.309 and 36.0921
- U2OS cell growth (5 uM, time 14 h): 29.4853 and 26.7812 and 33.8046
- U2OS cell growth (5 uM, time 16 h): 35.7377 and 26.5203 and 37.112
- U2OS cell growth (5 uM, time 18 h): 31.7384 and 24.4245 and 33.7687
- U2OS cell growth (5 uM, time 20 h): 25.8039 and 22.0617 and 30.6892
- U2OS cell growth (5 uM, time 22 h): 30.2127 and 21.4229 and 33.5882
- U2OS cell growth (5 uM, time 24 h): 28.8051 and 21.8036 and 29.3497
- U2OS cell growth (5 uM, time 26 h): 26.8601 and 20.9796 and 30.9925
- U2OS cell growth (5 uM, time 28 h): 32.6092 and 19.9632 and 33.1688
- U2OS cell growth (5 uM, time 30 h): 31.5686 and 20.1756 and 32.9355
- U2OS cell growth (5 uM, time 32 h): 33.1875 and 20.0173 and 35.1531
- U2OS cell growth (5 uM, time 48 h): 33.8432 and 24.5537 and 39.9609
- U2OS cell growth (5 uM, time 50 h): 32.2623 and 25.9153 and 34.4569
- U2OS cell growth (5 uM, time 52 h): 38.407 and 23.8043 and 39.8857
- U2OS cell growth (5 uM, time 54 h): 32.7545 and 23.1111 and 34.063
- U2OS cell growth (5 uM, time 56 h): 38.9851 and 24.1727 and 36.6069
- U2OS cell growth (5 uM, time 58 h): 40.8215 and 24.3142 and 36.269
- U2OS cell growth (5 uM, time 60 h): 45.4242 and 27.4359 and 48.0619
- U2OS cell growth (5 uM, time 62 h): 41.7021 and 26.6512 and 34.1758
- U2OS cell growth (5 uM, time 64 h): 35.5781 and 28.1251 and 35.0707
- U2OS cell growth (5 uM, time 66 h): 43.0487 and 25.4063 and 42.4088
- U2OS cell growth (5 uM, time 68 h): 36.8482 and 25.0895 and 34.995
- U2OS cell growth (5 uM, time 70 h): 46.2674 and 29.0868 and 48.7641
- U2OS cell growth (5 uM, time 72 h): 38.4782 and 25.8801 and 35.932
- U2OS cell growth (10 uM, time 0 h): 36.6888 and 25.9488 and 39.412
- U2OS cell growth (10 uM, time 2 h): 32.7801 and 22.005 and 32.135
- U2OS cell growth (10 uM, time 4 h): 26.345 and 17.8523 and 31.3415
- U2OS cell growth (10 uM, time 6 h): 24.7576 and 14.7737 and 25.8723
- U2OS cell growth (10 uM, time 8 h): 24.5321 and 14.5062 and 23.0218
- U2OS cell growth (10 uM, time 10 h): 29.1339 and 16.0642 and 25.8713
- U2OS cell growth (10 uM, time 12 h): 27.4568 and 15.8316 and 28.3309
- U2OS cell growth (10 uM, time 16 h): 27.3301 and 15.0503 and 28.5195
- U2OS cell growth (10 uM, time 20 h): 31.676 and 15.9606 and 29.2402
